No constants are given. Whether binding was seen depends on the method and setting. In cells and extracts the contact can be indirect.

The source of these data is publication doi:10.1101/2022.05.07.491029.

The test concerns the target HSV-1 gB-Sm (herpes simplex virus 1 (strain KOS)) (UniProt P06437). Nature of the test: split reporter.

On to “EBV gH-Lg/gL (from UniProt P03231 19-706; P03212 23-137) (complex)”, for which the binding entry is reported as “no binding”.
